Laboratory results taken from the supplement of paper PMC9233669.
Variants at the background level are over-represented here.

Key:
biotinyl-Trp-oxazolone = assay: self-aminoacylation, catalytic enhancement (BWO) (fold over background); higher = more active; k-Seq, kA / k0A0; sequences stand for … in GGGAAUGGAUCCACAUCUACGAAUUC…UUCACUGCAGACUUGACGAAGCUG
Summary of the method: (§1)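 Catalytic enhancement equals the median kA over the uncatalyzed rate, the latter read from the low-activity peak of a bimodal Gaussian fit. Values of kA came from fitting each sequence's fraction reacted to a pseudo-first-order model, with 1000 bootstraps. Reacted RNA was captured with streptavidin and quantified by triplicate qPCR and Illumina sequencing after 90 minutes at room temperature with 2–1250 μM biotinyl-aminoacyl-oxazolone and 0.43 μM mutagenized RNA pools bearing a 21-nt variable region.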

biotinyl-Leu-oxazolone = assay: self-aminoacylation, catalytic enhancement (BLO) (fold over background); higher = more active; k-Seq, kA / k0A0; sequences stand for … in GGGAAUGGAUCCACAUCUACGAAUUC…UUCACUGCAGACUUGACGAAGCUG
Summary of the method: as §1

biotinyl-Val-oxazolone = assay: self-aminoacylation, catalytic enhancement (BVO) (fold over background); higher = more active; k-Seq, kA / k0A0; sequences stand for … in GGGAAUGGAUCCACAUCUACGAAUUC…UUCACUGCAGACUUGACGAAGCUG
Summary of the method: as §1

biotinyl-Ile-oxazolone = assay: self-aminoacylation, catalytic enhancement (BIO) (fold over background); higher = more active; k-Seq, kA / k0A0; sequences stand for … in GGGAAUGGAUCCACAUCUACGAAUUC…UUCACUGCAGACUUGACGAAGCUG
Summary of the method: as §1

biotinyl-Met-oxazolone = assay: self-aminoacylation, catalytic enhancement (BMO) (fold over background); higher = more active; k-Seq, kA / k0A0; sequences stand for … in GGGAAUGGAUCCACAUCUACGAAUUC…UUCACUGCAGACUUGACGAAGCUG
Summary of the method: as §1

biotinyl-Phe-oxazolone = assay: self-aminoacylation, catalytic enhancement (BFO) (fold over background); higher = more active; k-Seq, kA / k0A0; sequences stand for … in GGGAAUGGAUCCACAUCUACGAAUUC…UUCACUGCAGACUUGACGAAGCUG
Summary of the method: as §1

Sequence	self-aminoacylation (biotinyl-Trp-oxazolone)	self-aminoacylation (biotinyl-Leu-oxazolone)	self-aminoacylation (biotinyl-Val-oxazolone)	self-aminoacylation (biotinyl-Ile-oxazolone)	self-aminoacylation (biotinyl-Met-oxazolone)	self-aminoacylation (biotinyl-Phe-oxazolone)
AUUCAGCUAGGUCAUCGGGGG [Fam2.2 aminoacylation ribozyme variant]	2.72	3.48	2.23	3.18	2.69	16.7
CUACUUCAAACAGCCGGUCUG [Fam1A.1 aminoacylation ribozyme variant]	0.804	1.05	1.07	1.06	1.15	0.468
UAGGUUGCUAAUAGUCGCAAG [Fam3.1 aminoacylation ribozyme variant]	2.01	1.15	1.2	1.4	1.2	1.91
CCACACUCCAAGCUAUCGGUC [Fam1B.1 aminoacylation ribozyme variant]	1.08	1.05	1.09	1.23	0.97	0.875
CUACUUAAAAGAAUCGGUCUG [Fam1A.1 aminoacylation ribozyme variant]	0.595	0.787	0.882	0.885	0.769	0.707
AUUCACCUAGGUCAUCGUGUA [Fam2.2 aminoacylation ribozyme variant]	0.793	0.89	0.928	0.872	0.819	0.616
CGACUUCAAACAAUAGGUCUG [Fam1A.1 aminoacylation ribozyme variant]	0.783	0.644	0.768	0.889	0.779	1.15
CCACACUACAACCAAUCGGUC [Fam1B.1 aminoacylation ribozyme variant]	0.672	0.836	0.751	0.729	0.712	0.544
UUUACCGUGGUCAUCGAGUGA [Fam2.1 aminoacylation ribozyme variant]	7.07	5.18	3.63	3.2	5.63	17.7
CCACACUUUAAGCAAUUGGUC [Fam1B.1 aminoacylation ribozyme variant]	0.478	0.551	0.656	0.548	0.644	0.71
AUUUACUUAGGUCAUCGGGUG [Fam2.2 aminoacylation ribozyme variant]	4.45	5.78	3.18	2.91	4.85	32.2
CUACUUCAAACAAUCGGGCAG [Fam1A.1 aminoacylation ribozyme variant]	0.704	0.818	0.898	0.742	0.864	1.06
AAGAUUGCUAACAGUCGCAAG [Fam3.1 aminoacylation ribozyme variant]	1.68	1.88	1.72	1.81	1.24	2.49
CCAUACUUGAAGCAAUCGGUC [Fam1B.1 aminoacylation ribozyme variant]	0.686	0.771	0.681	0.744	0.561	0.498
AUUCCCCUGGUCGUCGAGUGA [Fam2.1 aminoacylation ribozyme variant]	1.52	1.71	1.33	1.48	1.42	6.18
AAGUUUGCUAAUAGUCGUAUG [Fam3.1 aminoacylation ribozyme variant]	1.09	0.911	0.957	0.955	0.841	1.38
CCACACUUCAAGCACUCCGUC [Fam1B.1 aminoacylation ribozyme variant]	0.939	1.05	1.24	1.27	1.03	0.705
AGGUUUGCUAAUAUUCGCAAG [Fam3.1 aminoacylation ribozyme variant]	1.53	0.955	1	1.25	0.994	1.34
CGACACUUCAAGCAUUCGGUC [Fam1B.1 aminoacylation ribozyme variant]	1.51	1.55	1.99	1.8	1.64	3.31
CGACACUUCAAGCUAUCGGUC [Fam1B.1 aminoacylation ribozyme variant]	1.03	0.877	1.11	1.05	0.695	0.581
CUACUUCAACCCAUCGGUCUG [Fam1A.1 aminoacylation ribozyme variant]	0.838	0.943	0.983	0.983	0.722	0.647
AUUCACAUAGCUCAUCGGGUG [Fam2.2 aminoacylation ribozyme variant]	2.34	2.36	2.38	2	1.91	12.6
CUACUUCAAACAAACGCUCUG [Fam1A.1 aminoacylation ribozyme variant]	0.502	0.559	0.788	0.627	0.567	0.48
AAGUAUGCUAAUUGUCGCAAG [Fam3.1 aminoacylation ribozyme variant]	1.37	1.29	1.34	1.48	1.53	1.8
CCACACUUCAAGCCAUCGGCC [Fam1B.1 aminoacylation ribozyme variant]	4.97	2.85	5	2.98	3.33	5.27
AAGUUUACUAAUAGUCACAAG [Fam3.1 aminoacylation ribozyme variant]	1.39	1.33	1.44	1.74	1.33	2.55
